Counter-ions that a name gives are not always drawn. Like-named read-outs stand apart in the source and are kept apart here. At least one structure is not confirmed: it was looked up by name or label, or the drawing left a doubt.
Assays:
[1] = in vivo, cited from earlier work
[2] = tested on: mice; test: Survival and survival coefficient "S" of irradiated mice (X-ray or 60Co gamma), Tables 2-4; format: in vivo; details: 140 mg/kg AET alone, in words
Description: Experiments are carried out in mice. Irradiation was carried out with X-ray (rtg) and with gamma rays obtained from ^60 Co isotope. Survival was observed on the 30th day after irradiation and expressed by using survival coefficient "S" according to Kaluszyner. […] Mice were treated intraperitoneally.

Question: With `N=C(N)SCCN` [aminoethyl-isothiuronium-bromide-hydrobromide] as the compound, how does the Radiation protective dose [1] read?
Answer: 1000 mg/kg

Question: For `N=C(N)NCCS` [mercaptoethyl-guanidine], which Radiation protective dose [1] is on record?
Answer: 200 mg/kg

Question: Which results are given for `N=C(N)SCCN` [AET, aminoethyl-isothiuronium-chloride-hydrochloride]?
Answer: radiation protection [2]: substantially does not give any radiation protection; Radiation protective dose ([1]; listed as aminoethyl-isothiuronium-chloride-hydrochloride): 400 mg/kg

From patent US4563479A, “Synergistic radiation protective pharmaceutical compositions” (Chinoin Gyogyszer es Vegyeszeti Termekek Gyar RT, priority 1979, dated 1986)
